Laboratory results published in patent US20240383784A1, “ANTIMICROBIAL SYSTEM AND METHOD” (KEMIRA OYJ, priority 2021, published 2024).

Assay: Corrosion testing following ASTM G31-72, steel coupons in white water / process water
Details: 7 days, 55° C.; for corrosion relative to coupons in Compound A treated reactors: Example 4, tenfold concentrations

NCl [MCA, Monochloramine]
corrosion observed (Example 3, half immersed coupons, 4 ppm MCA as total active chlorine): mild corrosion | corrosion relative to coupons in Compound A treated reactors (gas phase coupons): 2.5 times | corrosion relative to coupons in Compound A treated reactors (half immersed coupons): 10.5 times
